Where “and” joins values, the source holds several entries; their conditions need not be identical. Equal entries are not always repeated. Structures can show the parent of a compound that is named as a salt. ± gives the standard deviation of the averaged measurements. In all, about 1,800 compounds were measured (“GFP- (p16Ink4a-) cell count relative to negative-control wells”: median about 0.99, lowest 2% from about 0.5 on). The list shows a part of the results.

This assay deals with mouse p16Ink4a+/- lung fibroblasts (INKBRITE, bleomycin-injured). Kind of assay: GFP- (p16Ink4a-) cell count relative to negative-control wells (fold of vehicle); higher = more p16Ink4a- cells surviving. As to conditions: 1 µM; 3 days.
Turning to `Cc1ccc(C(=O)C(C)CN2CCCCC2)cc1` (centres undefined) [Tolperisone], the GFP- is 1.01.

For `Cn1c(=O)n(-c2ccc(C(C)(C)C#N)cc2)c2c3cc(-c4cnc5ccccc5c4)ccc3ncc21` [Dactolisib], the GFP- is 0.74.

`NC(=O)c1ncn([C@@H]2O[C@H](CO)[C@@H](O)[C@H]2O)n1` [Ribavirin]: the GFP- amounted to 1.01.

On to `Cc1ccnc(NS(=O)(=O)c2ccc(N)cc2)n1` [Sulfamerazine], for which the GFP- was 1.1.

For the molecule `Cc1cc(-n2c(=O)[nH]c(=O)n(C)c2=O)ccc1Oc1ccc(SC(F)(F)F)cc1` [Toltrazuril], the GFP- is 0.887.

On to `Nc1cc(C(F)(F)F)c(-c2cc(N3CCOCC3)nc(N3CCOCC3)n2)cn1` [Buparlisib], for which the GFP- came to 0.719.

Turning to `CNCCC(Oc1ccc(C(F)(F)F)cc1)c1ccccc1` (centres undefined) [Fluoxetine Hydrochloride, Fluoxetine], the GFP- turned out to be 1.26.

Molecule `O=C(CCCCCCC(=O)Nc1ccccc1)NO` [Vorinostat] registered a GFP- of 0.555 ± 0.046.

Turning to `CNC[C@H](O)[C@@H](O)[C@H](O)[C@H](O)CO` [Meglumine], the GFP- came to 1.16.

`COc1ccc(-c2ccc3c(N4CCOCC4)nc(N4C[C@@H](C)O[C@@H](C)C4)nc3n2)cc1CO` gave a GFP- of 1.01.

As for `CC(=O)N[C@@H](CS)C(=O)O` [Acetylcysteine], the GFP- turned out to be 1.05.

In the case of `Nc1c(Br)cc(Br)cc1CN[C@H]1CC[C@H](O)CC1` [Ambroxol], the GFP- stood at 0.981.

With `CCCCCCCCCCCCCCCC(=O)OC1C(SC)OC(C(NC(=O)C2CC(CCC)CN2C)C(C)Cl)C(O)C1O` (centres undefined) [Clindamycin palmitate HCl], the GFP- was determined as 1.05.

In the case of `Cc1c(Cn2c(C)nc3c(C(=O)O)cc(N4CCOCC4)cc32)cccc1C(F)(F)F`, the GFP- was determined as 0.878.

As to `c1cc(-c2cnn3cc(-c4ccc(N5CCNCC5)cc4)cnc23)c2cccnc2c1`, the GFP- came out at 1.08.

The molecule `CCN(CC)CCOC(=O)c1ccc(N)cc1` [Procaine, Novocain] returned a GFP- of 1.1.

In turn, `CN1C(C(=O)Nc2ccccn2)=C(O)c2ccccc2S1(=O)=O` [Piroxicam] displayed a GFP- of 0.954.

Regarding `CO[C@H]1O[C@@H]2O[C@]3(C)CC[C@H]4[C@H](C)CC[C@@H]([C@H]1C)[C@@]24OO3` [Artemether], the GFP- is 0.98.

With `CCCCc1nc(Cl)c(CO)n1Cc1ccc(-c2ccccc2-c2nn[nH]n2)cc1` [Losartan, Losartan Potassium], the GFP- stood at 1.06.

Turning to `O=C(/C=C/c1ccc(CN(CCO)CCc2c[nH]c3ccccc23)cc1)NO` [Dacinostat], the GFP- came to 0.556 ± 0.066.

In turn, `CN(C)CCOC(c1ccccc1)c1ccccc1` [Diphenhydramine] showed a GFP- of 0.916.

In the case of `N=c1ccn2c(n1)O[C@H]1[C@H](O)[C@@H](CO)O[C@H]12` [Cyclocytidine HCl], the GFP- stood at 0.619.

Regarding `Cn1c(=O)c2c(ncn2CC(O)CO)n(C)c1=O` (centres undefined) [Dyphylline], the GFP- turned out to be 1.22.

Regarding `C[C@]12C=CC(=O)C=C1CC[C@@H]1[C@@H]2C(=O)C[C@@]2(C)[C@H]1CC[C@]2(O)C(=O)CO` [Prednisone], the GFP- is 1.08.

In turn, `CCc1c(O)cc(O)c(C(=O)c2ccc(OCCN3CCOCC3)c(OC)c2)c1CC(=O)N(CCOC)CCOC` had a GFP- of 0.894.

The molecule `COc1cc2c(cc1OC)CN(CCc1ccc(NC(=O)c3cc(OC)c(OC)cc3NC(=O)c3cnc4ccccc4c3)cc1)CC2` [Tariquidar] gave a GFP- of 0.938.

As to `CCCCCCCCCCCCCCCC(=O)OC[C@H](O)[C@H]1OC(O)=C(O)C1=O` [L-Ascorbyl 6-palmitate], the GFP- amounted to 1.1.

With `COc1ccc(C(=O)CC(=O)c2ccc(C(C)(C)C)cc2)cc1` [Avobenzone], the GFP- was 1.09.

`CS(=O)(=O)c1ccc(-c2cnc(N)c(C(=O)Nc3ccccc3)n2)cc1` yielded a GFP- of 0.863.

`C=CC(=O)Nc1cc2c(Nc3ccc(F)c(Cl)c3)ncnc2cc1OCCCN1CCOCC1`: the GFP- is 0.571.

On to `COc1cc(C(=O)NC2CCCNC2)cc(OC)c1OC` (centres undefined) [Troxipide], for which the GFP- came out at 1.03.

In turn, `CCO/C(O)=C1\C(COCCN)=NC(C)=C(C(=O)OC)C1c1ccccc1Cl` (centres undefined) [Amlodipine] returned a GFP- of 0.841.

For the molecule `Cc1c(OCC(F)(F)F)ccnc1CS(=O)c1nc2ccccc2[nH]1` (centres undefined) [Lansoprazole], the GFP- came to 1.06.

Molecule `CO[C@@H](C(=O)N1Cc2[nH]nc(NC(=O)c3ccc(N4CCN(C)CC4)cc3)c2C1)c1ccccc1` [Danusertib] gave a GFP- of 0.733 ± 0.17.

On to `OC(CC1c2ccccc2-c2cncn21)C1CCCCC1` (centres undefined), for which the GFP- stood at 1.17.

For the molecule `CCC[C@@H]1C[C@@H](C(=O)N[C@H](C(C)Cl)[C@H]2O[C@H](SC)[C@H](O)[C@@H](O)[C@H]2O)N(C)C1` (some centres undefined) [Clindamycin HCl], the GFP- is 0.865 and 1.15.

Consider `Cc1cc(Cl)ccc1OCCCC(=O)NO` [Droxinostat], for which the GFP- amounted to 0.915 ± 0.22.

The molecule `CC[C@H]1OC(=O)[C@H](C)[C@@H](O[C@H]2C[C@@](C)(OC)[C@@H](O)[C@H](C)O2)[C@H](C)[C@@H](O[C@H]2O[C@H](C)C[C@H](N(C)C)[C@H]2O)[C@](C)(O)C[C@@H](C)C(=O)[C@H](C)[C@@H](O)[C@]1(C)O` [Erythromycin] gave a GFP- of 1.07.

As to `O=C(Nc1cccnc1)N1CCC(Cc2cccc(Oc3ccc(C(F)(F)F)cn3)c2)CC1`, the GFP- amounted to 0.927.

As for `Oc1ccnc(S)n1` [2-thiouracil], the GFP- is 0.987.

`c1cncc(CN2CCC(n3ncc4c(N5CCOCC5)nc(-c5ccc6[nH]ccc6c5)nc43)CC2)c1`: the GFP- amounted to 0.82.

As to `CCOC(=O)N1c2ccc(C(F)(F)F)cc2[C@@H](N(Cc2cc(C(F)(F)F)cc(C(F)(F)F)c2)C(=O)OC)C[C@H]1CC` [Torcetrapib], the GFP- was 1.04.

For the molecule `C=C1/C(=C\C=C2/CCC[C@]3(C)[C@@H]([C@H](C)CCCC(C)(C)O)CC[C@@H]23)C[C@@H](O)C[C@@H]1O` [Calcitriol, DN-101], the GFP- came to 1.39.

Molecule `OCc1ccc(O[C@@H]2O[C@H](CO)[C@@H](O)[C@H](O)[C@H]2O)cc1` [Gastrodin] had a GFP- of 0.979.

`COc1cc2ncnc(Nc3ccc(F)c(Cl)c3)c2cc1OCCCN1CCOCC1` [Gefitinib] registered a GFP- of 0.923.

`CC(COc1ccccc1)N(CCCl)Cc1ccccc1` (centres undefined) [Phenoxybenzamine] yielded a GFP- of 1.17.

Molecule `O=C(Nc1c(Cl)cncc1Cl)c1ccc(OC(F)F)c(OCC2CC2)c1` [Roflumilast] had a GFP- of 0.982.

Turning to `CC(=O)OCC(=O)[C@@]12N=C(C)O[C@@H]1C[C@H]1[C@@H]3CCC4=CC(=O)C=C[C@]4(C)[C@H]3[C@@H](O)C[C@@]12C` [Deflazacort], the GFP- came to 1.08.

In the case of `CCCS(=O)(=O)Nc1ccc(F)c(C(=O)c2c[nH]c3ncc(-c4ccc(Cl)cc4)cc23)c1F` [Vemurafenib], the GFP- came out at 1.11.

On to `Clc1ccc(C(Cn2ccnc2)OCc2c(Cl)cccc2Cl)c(Cl)c1` (centres undefined) [Isoconazole], for which the GFP- is 1.19.

The molecule `Clc1ccccc1CN1CCc2sccc2C1` [Ticlopidine] gave a GFP- of 0.957.

`CO[C@H]1/C=C\C=C(/C)C(=O)NC2=CC(=O)/C(=N\CCN(C)C)C(=C2O)C[C@@H](C)C[C@H](OC)[C@H](O)[C@@H](C)/C=C(\C)[C@@H]1OC(N)=O` [Alvespimycin] yielded a GFP- of 0.64.

`OCC(O)CN1CCN(c2ccccc2)CC1` (centres undefined) [Dropropizine] returned a GFP- of 0.873.

Regarding `CC[C@H](CO)Nc1nc(NCc2ccccc2)c2ncn(C(C)C)c2n1` [Roscovitine, Seliciclib], the GFP- turned out to be 1.15.

Molecule `CC1(C)CC(=O)c2c(C(F)(F)F)nn(-c3ccc(C(N)=O)c(N[C@H]4CC[C@H](O)CC4)c3)c2C1` gave a GFP- of 0.624.

`CNC(=O)CN1CCC(Oc2cc3c(Nc4cccc(Cl)c4F)ncnc3cc2OC)CC1` [Sapitinib] came in with a GFP- of 0.948.

For `CC[C@@H]1C(=O)OC[C@@H]1Cc1cncn1C` [Pilocarpine], the GFP- came out at 1.04.

For the molecule `CC(C)NCC(O)c1ccc(O)c(O)c1` (centres undefined) [Isoprenaline], the GFP- came to 1.01.

For the molecule `CC[C@H]1OC(=O)C[C@@H](O)[C@H](C)[C@@H](O[C@@H]2O[C@H](C)[C@@H](O[C@H]3C[C@@](C)(O)[C@@H](O)[C@H](C)O3)[C@H](N(C)C)[C@H]2O)[C@@H](CC=O)C[C@@H](C)C(=O)/C=C/C(C)=C/[C@@H]1CO[C@@H]1O[C@H](C)[C@@H](O)[C@@H](OC)[C@H]1OC` [Tylosin Tartrate], the GFP- was 0.988.

With `CN1C2CCCC1CC(NC(=O)c1nn(C)c3ccccc13)C2` (centres undefined) [Granisetron Hydrochloride], the GFP- amounted to 1.08.

With `CCS(=O)(=O)CCn1c([N+](=O)[O-])cnc1C` [Tinidazole], the GFP- is 1.1.

With `Cc1cccc(C)c1OCC(=O)N[C@@H](Cc1ccccc1)[C@@H](O)C[C@H](Cc1ccccc1)NC(=O)[C@H](C(C)C)N1CCCNC1=O` [Lopinavir], the GFP- is 0.947.

As to `CC1=C(/C=C/C(C)=C/C=C/C(C)=C/C=C/C=C(C)/C=C/C=C(C)/C=C/C2=C(C)CCCC2(C)C)C(C)(C)CCC1` [Beta-carotene], the GFP- is 0.931.

`N#CC(=C(/N)Sc1ccccc1N)/C(C#N)=C(\N)Sc1ccccc1N` came in with a GFP- of 1.07.

Take `O=C(c1cccc(Cl)c1F)N1CCN(Cc2cccc(Nc3nccs3)n2)CC1`: the GFP- was determined as 1.11.

Molecule `Cc1cn(C2C=CC(CO)O2)c(=O)[nH]c1=O` (centres undefined) [Stavudine] had a GFP- of 1.15.

Molecule `COC1=CC(=O)C[C@@H](C)[C@]12Oc1c(Cl)c(OC)cc(OC)c1C2=O` [Griseofulvin] showed a GFP- of 1.16.

Turning to `Cn1nc(C(C)(C)C)cc1C(=O)N[C@@H](Cc1cccc(Cl)c1)C(=O)NCC#N` [Cathepsin Inhibitor 1], the GFP- was 1.01.

For `CC(C)(CO)c1cc2cc(NC(=O)C3(c4ccc5c(c4)OC(F)(F)O5)CC3)c(F)cc2n1C[C@@H](O)CO`, the GFP- worked out at 1.02.

`CCOC(=O)N1CCC(=C2c3ccc(Cl)cc3CCc3cccnc32)CC1` [Loratadine] showed a GFP- of 0.899.

On to `COc1nc(N)nc2c1ncn2[C@@H]1O[C@H](CO)[C@@H](O)[C@@H]1O` [Nelarabine], for which the GFP- turned out to be 0.922.

For the molecule `O=C(Nc1ccccc1Br)N[C@@H]1CCN(c2ccc(C(F)(F)F)cn2)C1`, the GFP- was found to be 1.22.

For `CCOc1nc2cccc(C(=O)O)c2n1Cc1ccc(-c2ccccc2-c2nn[nH]n2)cc1` [Candesartan], the GFP- worked out at 1.02.

`CN(C)C(=O)[C@H](O)[C@H](Cc1ccccc1)NC(=O)c1cc2cc(Cl)ccc2[nH]1` gave a GFP- of 0.963.

These data come from the supplement of paper PMC11060735.
